Reference: patent US20250339461A1 (priority 2024, published 2025)
At least one structure is not confirmed: it was looked up by name or label, or the drawing left a doubt.

Tests used:
tension headache = test system: tension headache; set-up: species or system human; details: in vivo
migraine headache = details: human, in vivo

| SMILES | benefit of injections for left occipital pain (tension headache) | benefit for migraine prophylaxis, history at first visit (migraine headache) |
| --- | --- | --- |
| C[C@@H]1C[C@H]2[C@@H]3CCC4=CC(=O)C=C[C@]4(C)[C@@]3(F)[C@@H](O)C[C@]2(C)[C@@]1(O)C(=O)CO [dexamethasone] | helped for several months | – |
| CCOC(=O)C1=C(COCCN)NC(C)=C(C(=O)OC)C1c1ccccc1Cl (centres unmarked) [amlodipine] | – | no benefit |
